Data published in PubChem BioAssay AID2417 (National Center for Advancing Translational Sciences (NCATS), 2010).
The whole screen tested about 140,000 compounds, of which about 4,300 (3.1%) were called active. The inconclusive results got no clear call from the source; some entries with a clear call stand among them for comparison.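 How the source made its calls: active means readout at or below -70, meaning at least 70% loss of cells showing the perinucleolar compartment, a nuclear body marking cancer cells; inconclusive means readout between -30 and a set limit; inactive means the rest.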

Experiment: High Content Assay for Compounds that inhibit the Assembly of the Perinucleolar Compartment;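 further: plate controls were DMSO wells for no effect and camptothecin positive control wells for full effect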
Settings: PC3M PTB-GFP, PNC prevalence imaging, 16 h; at 10 µM; hits give low values
How it was run: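 Read-out is percentage of cells bearing a perinucleolar compartment, from automated 20x imaging of fixed, Hoechst-stained PC3M PTB-GFP cells. Cells were seeded 4 h, then exposed 16 h to compound (23 nl of library stock) in duplicate plates.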
In the case of `Cn1c(SCC(=O)c2ccc(F)cc2)nnc1-c1cnccn1`, the activity change (PNC), negative = inhibition is reported as inconclusive: -34.6%.
In the case of `Oc1ccc2ccccc2c1N=Nc1ccccn1`, the activity change (PNC), negative = inhibition is reported as inactive: 14.7%.
In the case of `O=C(C1CC(c2ccccc2O)=NO1)N1CCc2ccccc2C1` (stereo not given), the activity change (PNC), negative = inhibition is reported as inactive: 20.8%.
In the case of `COc1ccccc1C(=O)n1nc(-c2ccco2)nc1N`, the activity change (PNC), negative = inhibition is reported as inconclusive: -44.6%.
In the case of `COc1ccc(N2CCN(CCNC(=O)CCS(=O)(=O)c3cccc4nsnc34)CC2)cc1`, the activity change (PNC), negative = inhibition is reported as inactive: 37.2%.
With `C=CC(=O)Nc1ccc(Br)cc1` the activity change (PNC), negative = inhibition was inconclusive: -30.4%.
In the case of `O=C(NCc1ccc2c(c1)OCO2)C1CCC(CNc2c(N3CCCCC3)c(=O)c2=O)CC1` (stereo not given), the activity change (PNC), negative = inhibition is reported as inconclusive: -30.3%.
For `CCOC(=O)N1CCN(CCC(=O)Nc2cc(OC)cc(OC)c2)CC1`, the activity change (PNC), negative = inhibition was inconclusive: -51.7%.
In the case of `CC(=O)N(CC(=O)O)c1ccccc1`, the activity change (PNC), negative = inhibition is reported as inactive: 65.8%.
For `Cc1cc(N2CCCc3ccccc32)n2ncnc2n1`, the activity change (PNC), negative = inhibition was inconclusive: -67.4%.
With `COc1cccc(CNC(=O)Cn2nc(-c3ccc(Cl)cc3)ccc2=O)c1` the activity change (PNC), negative = inhibition was inconclusive: -54.5%.
In the case of `O=C1C=C(NCCN2CCOCC2)CC(c2ccccc2)C1` (stereo not given), the activity change (PNC), negative = inhibition is reported as inconclusive: -41.8%.
For `CCCCOC(=O)Nc1ccc(C(N)=O)cc1`, the activity change (PNC), negative = inhibition was inconclusive: -43.1%.
In the case of `COc1ccc(Oc2coc3cc(OC(=O)/C=C/c4ccc(F)cc4)ccc3c2=O)cc1`, the activity change (PNC), negative = inhibition is reported as inactive: 34.7%.
For `O=C(CN1CCN(Cc2ccccc2)CC1)Nc1ccc(Cl)cn1`, the activity change (PNC), negative = inhibition was inconclusive: -30.6%.
In the case of `COC(=O)COc1ccc(Oc2nc(SC)nc(N(C)C)n2)nn1`, the activity change (PNC), negative = inhibition is reported as inconclusive: -50.4%.
In the case of `COc1cc(/C=N/NC(=O)C(Cc2c[nH]c3ccccc23)NC(=O)OCc2ccccc2)cc([N+](=O)[O-])c1O` (stereo not given), the activity change (PNC), negative = inhibition is reported as inactive: 2.03%.
For `O=C(CSc1ccccc1C(=O)O)NC1CCCCCCC1`, the activity change (PNC), negative = inhibition was inactive: -20.1%.
With `CC(Sc1nncs1)C(=O)Nc1ccc(Cl)cn1` (stereo not given) the activity change (PNC), negative = inhibition was inactive: -8.93%.
In the case of `C(=N\Nc1nc2ccccc2s1)/c1cccs1`, the activity change (PNC), negative = inhibition is reported as inactive: 24.4%.
For `CC(C)NC(=O)c1sc2nc(-c3cccs3)cc(-c3cccs3)c2c1N`, the activity change (PNC), negative = inhibition was inconclusive: -36.5%.
With `CCOc1nc(Nc2ccc(OC)cc2)nc(OCC)n1` the activity change (PNC), negative = inhibition was inconclusive: -30%.
For `CCOc1ccc(C(=O)Nc2ccc(-c3cc4ccccc4oc3=O)c(C)c2)cc1[N+](=O)[O-]`, the activity change (PNC), negative = inhibition was inactive: -4.77%.
In the case of `CCOc1ccc(S(=O)(=O)N2c3ccccc3CC2C)cc1` (stereo not given), the activity change (PNC), negative = inhibition is reported as active: -103%.
For `CCN(CC)c1ccc(C(=O)NC(=S)N2CCN(Cc3ccc4c(c3)OCO4)CC2)cc1`, the activity change (PNC), negative = inhibition was inconclusive: -49%.
In the case of `O=C1c2ccccc2NC(c2ccccc2Br)N1CCCN1CCOCC1` (stereo not given), the activity change (PNC), negative = inhibition is reported as inconclusive: -52.8%.
In the case of `CCOc1ccc(N(CC(=O)NCCCOC)S(C)(=O)=O)cc1`, the activity change (PNC), negative = inhibition is reported as inconclusive: -42.1%.
For `CN1CCC(=NNC(=O)c2cn(-c3ccccc3)nc2-c2ccccc2)CC1`, the activity change (PNC), negative = inhibition was inconclusive: -58.5%.
For `COc1ccccc1N1Cc2ccccc2C1`, the activity change (PNC), negative = inhibition was inconclusive: -48%.
For `CCC1(CC)Cc2ccccc2-c2nc(-c3ccccc3)oc(=O)c21`, the activity change (PNC), negative = inhibition was inconclusive: -62.2%.
For `NNc1nc2c(F)cc(F)cc2s1`, the activity change (PNC), negative = inhibition was inactive: 1.18%.
With `CCC(C)NC(=O)CSc1nc2c(sc3ccccc32)c(=O)n1CCCN1CCOCC1` (stereo not given) the activity change (PNC), negative = inhibition was inactive: -26.2%.
With `CCOC(=O)C1=C(C)NC(=O)NC1c1ccc(OCCO)c(OC)c1` (stereo not given) the activity change (PNC), negative = inhibition was inconclusive: -63.1%.
In the case of `CC(=O)N1CCN(CCN=CC2=C(O)CC(c3cccs3)CC2=O)CC1` (stereo not given), the activity change (PNC), negative = inhibition is reported as inactive: -2.76%.
With `Cc1ccc(C)c(N(CC(=O)Nc2ccc(-c3nc4ccc(C)cc4s3)cc2)S(C)(=O)=O)c1` the activity change (PNC), negative = inhibition was inconclusive: -56.7%.
In the case of `O=[N+]([O-])c1nn(-c2ccc3c(c2)OCCO3)n(O)c1=Nc1ccccc1`, the activity change (PNC), negative = inhibition is reported as inconclusive: -38.8%.
With `O=C(COC(=O)c1ccccc1NC(=O)c1ccco1)Nc1ccc2c(c1)OCO2` the activity change (PNC), negative = inhibition was inconclusive: -67.4%.
In the case of `O=C(NCc1ccc2c(c1)OCO2)C1CC(=O)N(c2ccc(F)cc2)C1` (stereo not given), the activity change (PNC), negative = inhibition is reported as inconclusive: -41.9%.
With `CCNC(=O)c1c(O)c2ccccc2[nH]c1=O` the activity change (PNC), negative = inhibition was inactive: -12%.
In the case of `CC(C)(C)C1C=C(Sc2ccccc2)C(=O)O1` (stereo not given), the activity change (PNC), negative = inhibition is reported as inactive: 18.6%.
For `O=C1c2ccccc2C(=O)N1CN(C(=O)COc1ccc(Cl)cc1Cl)c1cccc(F)c1`, the activity change (PNC), negative = inhibition was inconclusive: -58.4%.
For `O=C(OCC1CC(c2ccccc2Cl)=NO1)c1ccc(Br)cc1` (stereo not given), the activity change (PNC), negative = inhibition was inconclusive: -71%.
In the case of `Cc1sc(NC(=O)CN2CCN(c3ccccn3)CC2)c(C#N)c1C`, the activity change (PNC), negative = inhibition is reported as inconclusive: -71.5%.
For `O=S(=O)(Nc1ccc2c(c1)OCO2)c1ccccc1`, the activity change (PNC), negative = inhibition was inactive: 37.6%.
In the case of `Cc1[nH]c2ccccc2c1/C=N/Nc1ccc([N+](=O)[O-])cc1S(=O)(=O)Nc1ccc(Cl)cc1`, the activity change (PNC), negative = inhibition is reported as inactive: -22.5%.
